Measured values from PubChem BioAssay AID588590 (National Center for Advancing Translational Sciences (NCATS), 2011).
Out of some 390,000 compounds screened, about 4,000 (1%) were called active. The shares of active, inactive and inconclusive entries below differ from those in the screen. Calls follow the shape of the dose curve; as a rule, active = well fitted inhibition curve with a large enough effect; inconclusive = small, poorly fitted or top-dose-only effect, or another doubt; inactive = no such curve, though single readings can be large or run the other way. Potencies beside an inconclusive call are fits to weak or partial responses and may not hold up.
Potency is read from the fitted curve at half-maximal effect.

The chains behind the UniProt entries cited, without tags or fusion partners. Where a name states a change or a piece, a line headed by the entry shows the natural chain unless it says otherwise.
UniProt Q9UNA4: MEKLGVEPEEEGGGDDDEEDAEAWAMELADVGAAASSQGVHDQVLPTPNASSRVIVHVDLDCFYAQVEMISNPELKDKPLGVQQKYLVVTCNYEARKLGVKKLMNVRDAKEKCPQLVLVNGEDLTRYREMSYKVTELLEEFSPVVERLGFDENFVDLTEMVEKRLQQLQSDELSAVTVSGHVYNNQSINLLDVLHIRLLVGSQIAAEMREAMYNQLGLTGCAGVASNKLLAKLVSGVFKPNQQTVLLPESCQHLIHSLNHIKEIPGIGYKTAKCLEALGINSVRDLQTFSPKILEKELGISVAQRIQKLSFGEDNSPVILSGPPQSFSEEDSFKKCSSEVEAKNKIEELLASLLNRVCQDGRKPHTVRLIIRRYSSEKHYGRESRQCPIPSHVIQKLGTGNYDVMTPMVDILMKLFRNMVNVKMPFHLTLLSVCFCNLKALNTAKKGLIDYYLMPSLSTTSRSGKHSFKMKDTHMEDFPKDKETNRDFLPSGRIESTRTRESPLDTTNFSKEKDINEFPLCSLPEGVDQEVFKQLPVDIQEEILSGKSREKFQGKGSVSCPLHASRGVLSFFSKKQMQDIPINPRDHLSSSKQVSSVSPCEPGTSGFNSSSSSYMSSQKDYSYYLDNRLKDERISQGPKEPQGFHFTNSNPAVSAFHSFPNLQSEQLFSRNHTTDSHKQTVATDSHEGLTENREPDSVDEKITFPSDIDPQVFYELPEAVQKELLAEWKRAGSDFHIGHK

Each compound was assayed against DNA polymerase iota (Homo sapiens) (UniProt Q9UNA4) (assay: qHTS for Inhibitors of Polymerase Iota). Settings: Pol iota fluorescent replication assay, 10 min; series mostly up to 115 µM; activity, negative = inhibition: at the top concentration.
Procedure, shortened: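 Fluorescent replication assay read twice, at 0 min and 10 min after adding 50 nM (final) substrate. Enzyme (10 nM) and compounds were first incubated 15 min at room temperature; enzyme-free buffer wells were negative controls.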
With `Cc1ccc(-c2nnn(CC(=O)N(c3cnc4ccccc4c3)C(C(=O)NC3CCCC3)c3ccncc3)n2)o1` (stereo unspecified) the Potency was inconclusive: 5.62 µM [inhibitor, partial curve]. With `Cc1ccc(CNc2ncnc3c2c(-c2ccccc2)cn3-c2cccc(Cl)c2)cc1` the Potency was inconclusive: 89.1 µM [inhibitor, single point]. For `Cc1onc(-c2ccccc2Cl)c1C(=O)Nc1cnn(Cc2ccccc2)c1`, the Potency was inconclusive: 28.2 µM [inhibitor, partial curve, poor fit]. With `Cc1ccc(-c2noc(CN(C3CCCCC3)S(=O)(=O)c3ccc(Cl)cc3)n2)cc1` the “activity, negative = inhibition” value was inactive: 30.6%. For `Cc1ccc(OCC(=O)c2cc(C)n(-c3cc(C)on3)c2C)c([N+](=O)[O-])n1`, the Potency was inconclusive: 22.4 µM [inhibitor, full curve, poor fit]. For `O=C(CSc1nc2scc(-c3ccccc3)c2c(=O)[nH]1)N1CCCCC1`, the Potency was inconclusive: 56.2 µM [inhibitor, partial curve, poor fit]. `COc1ccc(CC(=O)N/N=C/C=C/c2ccc3c(c2)OCO3)cc1OC` was tested, and the Potency was inconclusive: 89.1 µM [inhibitor, single point]. `CCOc1cc(OCC)cc(C(=O)NCc2ccco2)c1` was tested, and the Potency was inconclusive: 22.4 µM [inhibitor, single point]. With `CCOc1ccc(S(=O)(=O)N2CCOCC2)cc1NC(=O)CN1C(=O)NC2(CCCC2)C1=O` the Potency was inconclusive: 89.1 µM [inhibitor, single point]. With `COC(=O)C(C(C)=O)C1=C/C(=N\S(=O)(=O)c2ccc(C)cc2)c2ccccc2C1=O` (stereo unspecified) the “activity, negative = inhibition” value was inactive: 34.4%. For `CCOC(=O)C(=CNc1ccc(-c2ccco2)c(Cl)c1)C(=O)OCC`, the Potency was inconclusive: 39.8 µM [inhibitor, partial curve, poor fit]. For `O=C(CC1C(=O)N(c2ccccc2)C(=S)N1c1ccccc1)c1ccccc1` (stereo unspecified), the Potency was inconclusive: 50.1 µM [inhibitor, partial curve, poor fit]. With `COc1ccc(-c2nc(CSCC(=O)NCCc3ccc(C)cc3)c(C)o2)cc1OC` the “activity, negative = inhibition” value was inactive: 17.4%. In the case of `OC(COc1ccc(Br)cc1)CN1CCOCC1` (stereo unspecified), the Potency is reported as inconclusive: 10 µM [inhibitor, partial curve, poor fit]. In the case of `O=C1C=C(N2CCN(c3ccccn3)CC2)C(=O)c2c(O)ccc(O)c21`, the “activity, negative = inhibition” value is reported as inactive: -3.5%. In the case of `O=C(Cn1c(=O)sc2ccccc21)Nc1nc2c(s1)CCCC2`, the Potency is reported as inconclusive: 100 µM [inhibitor, single point]. With `COc1ccccc1CNC(=O)C(=O)NCCC1CCCCN1S(=O)(=O)c1cccs1` (stereo unspecified) the “activity, negative = inhibition” value was inactive: 40.4%. For `CCn1c(=N)c(C(=O)NCc2cccnc2)cc2c(=O)n3cc(C)ccc3nc21`, the Potency was inconclusive: 89.1 µM [inhibitor, single point]. `O=S(=O)(c1ccc(-n2cnnn2)cc1)N1CCNCC1` was tested, and the Potency was inconclusive: 79.4 µM [inhibitor, single point]. With `O=S(=O)(Nc1cccc(-c2cn3c(n2)SCC3)c1)c1ccccc1F` the Potency was inconclusive: 39.8 µM [inhibitor, single point]. `Clc1ccc(Cn2nnc(-c3ccccc3)n2)cc1` was tested, and the Potency was inconclusive: 31.6 µM [inhibitor, single point]. For `COc1ccc(Nc2cc(=O)n(C3CCCCC3)c(=O)[nH]2)c(OC)c1`, the “activity, negative = inhibition” value was inactive: -1.49%. With `COC(=O)C[C@H]1c2cc(C(F)(F)F)ccc2S(=O)(=O)N1C1CCCC1` the Potency was inconclusive: 89.1 µM [inhibitor, single point]. With `O=C(CSc1ccc(Br)c2cccc(Cl)c12)Nc1ccc(S(=O)(=O)Nc2nccs2)cc1` the Potency was inconclusive: 63.1 µM [inhibitor, partial curve, poor fit]. With `COc1ccccc1OCC(=O)NNC(=O)c1cccs1` the Potency was inconclusive: 89.1 µM [inhibitor, single point]. In the case of `O=C1ON=C(c2ccccc2)/C1=C/c1cccnc1`, the “activity, negative = inhibition” value is reported as inactive: -5.91%. `O=C(CSc1ncnc2ccccc12)N1CCCC1` was tested, and the Potency was inconclusive: 0.794 µM [inhibitor, full curve, poor fit]. In the case of `CCCCN(Cc1ccccc1)S(=O)(=O)c1ccc2c(c1)CC(C)N2C(=O)CC` (stereo unspecified), the “activity, negative = inhibition” value is reported as inactive: -0.0948%. For `CC(NC(=O)COC(=O)c1ccco1)C12CC3CC(CC(C3)C1)C2` (stereo unspecified), the “activity, negative = inhibition” value was inactive: -3.51%. `CC1=NNC(=O)/C1=C\c1cn(-c2ccccc2)nc1-c1ccccc1` was tested, and the Potency was inconclusive: 15.8 µM [inhibitor, partial curve, poor fit]. In the case of `CCn1c(C)cc(C)c(C#N)c1=O`, the Potency is reported as inconclusive: 63.1 µM [inhibitor, partial curve, poor fit]. In the case of `CCC(=O)Nc1sc2c(c1C(=O)Nc1ccccc1C)CCC(C)C2` (stereo unspecified), the “activity, negative = inhibition” value is reported as inactive: 29.5%. With `O=c1cc(CN2CCN(S(=O)(=O)c3ccccc3)CC2)nc2ccc(Cl)cn12` the Potency was inconclusive: 100 µM [inhibitor, single point]. In the case of `CC(=O)Nc1ccc(NC(=S)NC(=O)/C=C/c2ccco2)cc1`, the Potency is reported as inconclusive: 22.4 µM [inhibitor, full curve, poor fit]. For `Cc1cccc(C)c1OCCCCn1c(C2CC(=O)N(c3ccc(F)cc3)C2)nc2ccccc21` (stereo unspecified), the Potency was inconclusive: 15.8 µM [inhibitor, full curve, poor fit]. In the case of `COc1cc(/C=C/C(=O)OCC(=O)Nc2ccc([N+](=O)[O-])cc2)ccc1O`, the “activity, negative = inhibition” value is reported as inactive: -19%. With `COc1ccc2nc(NC(=O)c3ccc(S(=O)(=O)N4CCC(C)CC4)cc3)sc2c1` the “activity, negative = inhibition” value was inactive: -7.05%. For `O=C1C(Cl)=C(NS(=O)(=O)c2ccc([N+](=O)[O-])cc2)C(=O)c2ccccc21`, the Potency was inconclusive: 25.1 µM [inhibitor, single point]. `COc1ccc(C(=O)N/N=C/c2ccc(OC(=O)c3cccc4ccccc34)c([N+](=O)[O-])c2)cc1` was tested, and the Potency was inconclusive: 100 µM [inhibitor, partial curve, poor fit]. For `COCCn1nnnc1C(c1ccc(OC)cc1OC)N1CCN(c2ccccc2)CC1` (stereo unspecified), the Potency was inconclusive: 5.01 µM [inhibitor, full curve, poor fit]. In the case of `COc1ccc2[nH]c(C)c(CCN(Cc3cccs3)C(=S)Nc3ccc(F)cc3)c2c1`, the Potency is reported as inconclusive: 28.2 µM [inhibitor, partial curve, poor fit]. `O=C(O)c1ccccc1NS(=O)(=O)c1ccc2c3c(cccc13)C(=O)N2` was tested, and the Potency was inconclusive: 8.91 µM [inhibitor, full curve, poor fit]. With `O=C(Nc1ccccc1C(=O)OCc1cc(=O)n2c3c(sc2n1)CCCC3)c1ccccc1` the “activity, negative = inhibition” value was inactive: 13.2%. In the case of `COc1ccc(NC(=O)C23CC4CC(C2)CC(n2cnc(Br)n2)(C4)C3)cc1OC`, the Potency is reported as inconclusive: 100 µM [inhibitor, partial curve, poor fit]. For `O=S(=O)(Nc1ccc(Br)cc1)N1CCOCC1`, the Potency was inconclusive: 39.8 µM [inhibitor, single point]. `O=C(Nc1nnc(SCc2ccccn2)s1)C1CC(=O)N(c2ccc(F)cc2)C1` (stereo unspecified) was tested, and the Potency was inconclusive: 31.6 µM [inhibitor, partial curve, poor fit]. With `O=C(NC(=S)Nc1ccc(C(=O)N2CCOCC2)cc1)c1ccc([N+](=O)[O-])cc1` the Potency was inconclusive: 89.1 µM [inhibitor, partial curve, poor fit]. For `O=C(Nc1ccccc1)c1cc(-n2cnnc2)ccc1Cl`, the “activity, negative = inhibition” value was inactive: 10.3%. For `O=C(COc1ncnc2sccc12)N1CCN(c2ccccc2)CC1`, the Potency was inconclusive: 20 µM [inhibitor, full curve]. For `Cc1ccc(S(=O)(=O)N2CCOCC2)cc1NC(=O)COC(=O)C1(C)CC1(Cl)Cl` (stereo unspecified), the “activity, negative = inhibition” value was inactive: 3.08%. `O=C(O)c1ccccc1O` was tested, and the “activity, negative = inhibition” value was inactive: 2.77%. `CCOC(=O)c1sc2nc(C)n(CC(=O)Nc3cccc(Cl)c3)c(=O)c2c1C` was tested, and the Potency was inconclusive: 25.1 µM [inhibitor, single point]. In the case of `COc1ccc(CN(C)S(=O)(=O)c2nnc(NC(=O)C(C)C)s2)cc1OC`, the “activity, negative = inhibition” value is reported as inactive: 14.3%. With `CCc1cccc(NC(=O)c2cc3c(=O)[nH]c4ccccc4c3n2C)c1` the “activity, negative = inhibition” value was inactive: -10.5%. In the case of `Cc1ccc(Cl)cc1NC(=O)CCCn1c(=O)c2cccn2c2ccccc21`, the Potency is reported as inconclusive: 39.8 µM [inhibitor, single point]. With `CN(CC(=O)Nc1ccc(F)cc1)CC(=O)N(C)C1(C#N)CCCCC1` the Potency was inconclusive: 89.1 µM [inhibitor, single point]. With `CCc1nnc(NC(=O)CN2CCN(Cc3cccc(F)c3)CC2)s1` the Potency was inconclusive: 89.1 µM [inhibitor, partial curve, poor fit]. With `CC1(C)C(=O)Nc2ccccc2N1C(=O)COC(=O)c1ccc(NC(N)=O)cc1` the Potency was inconclusive: 25.1 µM [inhibitor, full curve, poor fit]. In the case of `CCn1c(-c2cc(-c3cc(OC)ccc3OC)nc3ccccc23)n[nH]c1=S`, the “activity, negative = inhibition” value is reported as inactive: -23.1%. In the case of `CC(=O)N1CCc2c(sc3nc(SCC(N)=O)n(-c4ccc(F)c(Cl)c4)c(=O)c23)C1`, the “activity, negative = inhibition” value is reported as inactive: -2.52%. `O=C(CSc1nc2ccc(Cl)cc2[nH]1)N1CCN(C(=O)c2ccco2)CC1` was tested, and the “activity, negative = inhibition” value was inactive: -48.5%. With `Cc1oc(C(=O)O)cc1COc1cccc2cccnc12` the Potency was active: 10 µM. `COC(=O)Cn1c(=O)n(CCc2ccccc2)c(=O)c2c3c(sc21)CCCC3` was tested, and the Potency was inconclusive: 56.2 µM [inhibitor, partial curve, poor fit]. `Cc1ccc(-n2nc3c(N4CCC(C(=O)NCCc5cccs5)CC4)nnc(C)c3c2C)cc1` was tested, and the Potency was inconclusive: 17.8 µM [inhibitor, partial curve, poor fit]. With `O=S(=O)(c1ccc2ccccc2c1)N1CCOCC1` the Potency was “inactive”. `Cc1ccc(N/C=C2\C(=O)N(c3ccc(F)cc3F)C(c3cccnc3)S2(=O)=O)cc1` (stereo unspecified) was tested, and the Potency was inconclusive: 50.1 µM [inhibitor, partial curve, poor fit].
